# Experiment: general procedure: solution-phase peptide synthesis; HATU/HOAt/DIEA; EDC/HOBt
# Settings: conjugation step
row,Substance,conjugation yield
1,"(S)-2-amino-N—((S)-1-((4-((2R,3R)-3-((S)-1-((3S,10R,16S,E)-10-(3-chloro-4-methoxybenzyl)-3-isobutyl-6,6-dimethyl-2,5,9,12-tetraoxo-1-oxa-4,8,11-triazacyclohexadec-13-en-16-yl)ethyl)oxiran-2-yl)benzyl)amino)-1-oxopropan-2-yl)-3-methylbutanamide",45%

# Same assay, conditions: coupling step
row,Substance,step yield
1,"(6R,13S)-(1E,3R,4S,6E)-1-(4-(azidomethyl)phenyl)-8-(tert-butoxy)-3-methyl-8-oxoocta-1,6-dien-4-yl 6-(3-chloro-4-methoxybenzyl)-13-isobutyl-2,2,10,10-tetramethyl-4,7,11-trioxo-3-oxa-5,8,12-triazatetradecan-14-oate",57%
2,"(6R,13S)-(1E,3R,4S,6E)-8-(tert-butoxy)-1-(4-(hydroxymethyl)phenyl)-3-methyl-8-oxoocta-1,6-dien-4-yl 6-(3-chloro-4-methoxybenzyl)-2,2,9,10,10-pentamethyl-13-neopentyl-4,7,11-trioxo-3-oxa-5,8,12-triazatetradecan-14-oate",30%
3,"(6R,13S)-(1E,3R,4S,6E)-8-(tert-butoxy)-1-(4-(hydroxymethyl)phenyl)-3-methyl-8-oxoocta-1,6-dien-4-yl 6-(3-chloro-4-methoxybenzyl)-2,2,10,10-tetramethyl-13-neopentyl-4,7,11-trioxo-3-oxa-5,8,12-triazatetradecan-14-oate",57%

# Same assay, conditions: late stage modification step
row,Substance,step yield
1,"(3S,10R,16S,E)-16-((S)-1-((2R,3R)-3-(4-(azidomethyl)phenyl)oxiran-2-yl)ethyl)-10-(3-chloro-4-methoxybenzyl)-6,6,7-trimethyl-3-neopentyl-1-oxa-4,8,11-triazacyclohexadec-13-ene-2,5,9,12-tetraone",94%
2,"(3S,10R,16S,E)-16-((S)-1-((2R,3R)-3-(4-(azidomethyl)phenyl)oxiran-2-yl)ethyl)-10-(3-chloro-4-methoxybenzyl)-6,6-dimethyl-3-neopentyl-1-oxa-4,8,11-triazacyclohexadec-13-ene-2,5,9,12-tetraone",40%
3,"(3S,10R,16S,E)-16-((S)-1-((2R,3R)-3-(4-(azidomethyl)phenyl)oxiran-2-yl)ethyl)-10-(3-chloro-4-methoxybenzyl)-6-methyl-3-neopentyl-6-(((triethylsilyl)oxy)methyl)-1-oxa-4,8,11-triazacyclohexadec-13-ene-2,5,9,12-tetraone",24%
4,"(6R,13S)-(1E,3R,4S,6E)-1-(4-(azidomethyl)phenyl)-8-(tert-butoxy)-3-methyl-8-oxoocta-1,6-dien-4-yl 6-(3-chloro-4-methoxybenzyl)-13-isobutyl-2,2,10,10-tetramethyl-4,7,11-trioxo-3-oxa-5,8,12-triazatetradecan-14-oate",50%
5,"(9S,12S)-1-(4-((2R,3R)-3-((S)-1-((3S,7S,10R,16S, E)-10-(3-chloro-4-methoxy-benzyl)- 6,6,7-trimethyl-3-neopentyl-2,5,9,12-tetraoxo-1-oxa-4,8,11-triazacyclohexadec-13-en-16-yl)ethyl)oxiran-2-yl)phenyl)-12-isopropyl-9-methyl-3,8,11,14-tetraoxo-2-oxa-4,7,10,13-tetraazaoctadecan-18-oic acid",56%
6,"(S)-2-((3S,7S,10R,16S, E)-10-(3-chloro-4-methoxybenzyl)-6,6,7-trimethyl-3-neopentyl-2,5,9,12-tetraoxo-1-oxa-4,8,11-triazacyclohexadec-13-en-16-yl)propanal",47%

# Reference: US10941139B2 (priority 2015, dated 2021)
